From patent US10159726B2, “Peptides, combination of peptides and scaffolds for use in immunotherapeutic treatment of various cancers” (Immatics Biotechnologies GmbH, priority 2015, dated 2018)
For some of these results: Expression grades refer to the transcript from which the peptide derives; gene names, where given, were looked up from the sequence.

Assays:
[1] = tested on: source genes of selected peptides; test: Expression profiling of source genes by in-house RNAseq, tumor vs normal tissues (target coverage); set-up: species or system human; conditions: for Target coverage, over-expression of source gene, AML: AML (N = 7); for Target coverage, over-expression of source gene, AML / Target coverage, over-expression of source gene, BRCA / Target coverage, over-expression of source gene, CLL / Target coverage, over-expression of source gene, CRC / Target coverage, over-expression of source gene, GB / Target coverage, over-expression of source gene, HCC / Target coverage, over-expression of source gene, OC / Target coverage, over-expression of source gene, OSCAR / Target coverage, over-expression of source gene, PC / Target coverage, over-expression of source gene, RCC / Target coverage, over-expression of source gene, SCLC / Target coverage, over-expression of source gene, pNSCLC: in-house RNASeq; for Target coverage, over-expression of source gene, BRCA: BRCA (N = 10); for Target coverage, over-expression of source gene, CLL: CLL (N = 10); for Target coverage, over-expression of source gene, CRC: CRC (N = 20); for Target coverage, over-expression of source gene, GB: GB (N = 24); for Target coverage, over-expression of source gene, HCC: HCC (N = 15); for Target coverage, over-expression of source gene, OC: OC (N = 12); for Target coverage, over-expression of source gene, OSCAR: OSCAR (N = 11); for Target coverage, over-expression of source gene, PC: PC (N = 26); for Target coverage, over-expression of source gene, RCC: RCC (N = 10); for Target coverage, over-expression of source gene, SCLC: SCLC (N = 10); for Target coverage, over-expression of source gene, pNSCLC: pNSCLC (N = 11)
[2] = tested on: HLA-A*24 molecules of primary tumors; test: Identification and relative LC-MS quantitation of HLA-A*24 tumor-associated peptides presented on tissue samples (XPRESIDENT presentation profiles); set-up: species or system human; conditions: for ENTITIES: Table 9A: selected HLA-A*24-binding tumor-associated peptides, cancer entities on which the peptide was found presented; for Peptide Presentation on cancer entities: Table 9B: selected HLA-A*24 peptides, presentation on additional cancer entities; for number of cancer tissues on which the peptide was found presented / number of normal tissues on which the peptide was found presented / number of cell lines on which the peptide was found presented: FIG. 1 presentation profile, shown are only samples where the peptide was found to be presented
[3] = over-expression = more than 1.5-fold vs highest normal tissue
[4] = share of tumors with more than 1.5-fold higher expression than highest relevant normal tissue

For “113: peptide found in RIF1 (gene looked up) (IYSFHTLSF; listed as Homo sapiens) [compound 113]”, the “Target coverage, over-expression of source gene, AML” value ([1]; over-expression = more than 1.5-fold higher expression on tumor vs highest-expressing relevant normal tissue) was “I (<19% over-expression = I)”, the “Target coverage, over-expression of source gene, BRCA” value [1, 3] was “I (<19% over-expression = I)” and the “Target coverage, over-expression of source gene, CLL” value [1, 3] was “I (<19% over-expression = I)”. For the same substance, the “Target coverage, over-expression of source gene, CRC” value [1, 3] was “I (<19% over-expression = I)”, the “Target coverage, over-expression of source gene, GB” value [1, 3] was “II (20-49% = II)” and the “Target coverage, over-expression of source gene, HCC” value [1, 3] was “I (<19% over-expression = I)”. The “Target coverage, over-expression of source gene, OC” value [1, 3] was “I (<19% over-expression = I)”, the “Target coverage, over-expression of source gene, OSCAR” value [1, 3] was “I (<19% over-expression = I)” and the “Target coverage, over-expression of source gene, PC” value [1, 3] was “I (<19% over-expression = I)”. The “Target coverage, over-expression of source gene, RCC” value [1, 3] was “I (<19% over-expression = I)”, the “Target coverage, over-expression of source gene, SCLC” value [1, 3] was “III (50-69% = III)” and the “Target coverage for source genes of selected peptides, GBC_CCC (N = 10)” value ([1]; gallbladder adenocarcinoma and cholangiocarcinoma, share of tumors with more than 1.5-fold higher expression than the highest-expressing relevant normal tissue, in-house RNAseq) was “I (<19% over-expression = I)”. The “Target coverage for source genes of selected peptides, GC (N = 11)” value ([1]; gastric cancer, share of tumors with more than 1.5-fold higher expression than the highest-expressing relevant normal tissue, in-house RNAseq) was “I (<19% over-expression = I)”, the “Target coverage for source genes of selected peptides, HNSCC (N = 10)” value ([1]; head and neck small cell carcinoma, share of tumors with more than 1.5-fold higher expression than the highest-expressing relevant normal tissue, in-house RNAseq) was “II (20-49% = II)” and the “Target coverage for source genes of selected peptides, MEL (N = 10)” value ([1]; melanoma, share of tumors with more than 1.5-fold higher expression than the highest-expressing relevant normal tissue, in-house RNAseq) was “I (<19% over-expression = I)”. The “Target coverage for source genes of selected peptides, NHL (N = 10)” value ([1]; non-Hodgkin lymphoma, share of tumors with more than 1.5-fold higher expression than the highest-expressing relevant normal tissue, in-house RNAseq) was “I (<19% over-expression = I)”, the “Target coverage, over-expression of source gene, pNSCLC” value [1, 3] was “I (<19% over-expression = I)” and the “Target coverage for source genes of selected peptides, PCA (n = 10)” value ([1]; prostate cancer and benign prostate hyperplasia, share of tumors with more than 1.5-fold higher expression than the highest-expressing relevant normal tissue, in-house RNAseq) was “I (<19% over-expression = I)”. For the same substance, the “Target coverage for source genes of selected peptides, UBC (N = 10)” value ([1]; urinary bladder cancer, share of tumors with more than 1.5-fold higher expression than the highest-expressing relevant normal tissue, in-house RNAseq) was “I (<19% over-expression = I)”, the “Target coverage for source genes of selected peptides, UTC (N = 10)” value ([1]; uterine cancer, share of tumors with more than 1.5-fold higher expression than the highest-expressing relevant normal tissue, in-house RNAseq) was “I (<19% over-expression = I)” and the ENTITIES [2] was “NSCLC, GC, GB”.
For “189: peptide found in TET2 (gene looked up) (AYFKQSSVF; listed as Homo sapiens) [compound 189]”, the “Target coverage, over-expression of source gene, AML” value [1, 4] was “II (20-49% = II)”, the “Target coverage, over-expression of source gene, BRCA” value [1, 4] was “I (<19% over-expression = I)” and the “Target coverage, over-expression of source gene, CLL” value [1, 4] was “II (20-49% = II)”. For the same substance, the “Target coverage, over-expression of source gene, CRC” value [1, 4] was “I (<19% over-expression = I)”, the “Target coverage, over-expression of source gene, GB” value [1, 4] was “I (<19% over-expression = I)” and the “Target coverage, over-expression of source gene, HCC” value [1, 4] was “I (<19% over-expression = I)”. For the same substance, the “Target coverage, over-expression of source gene, OC” value [1, 4] was “I (<19% over-expression = I)”, the “Target coverage, over-expression of source gene, OSCAR” value [1, 4] was “I (<19% over-expression = I)” and the “Target coverage, over-expression of source gene, PC” value [1, 4] was “I (<19% over-expression = I)”. For the same substance, the “Target coverage, over-expression of source gene, RCC” value [1, 4] was “I (<19% over-expression = I)”, the “Target coverage, over-expression of source gene, SCLC” value [1, 4] was “I (<19% over-expression = I)” and the “Target coverage, over-expression of source gene, pNSCLC” value [1, 4] was “I (<19% over-expression = I)”. The “Peptide Presentation on cancer entities” value [2] was “NSCLC”.
In the case of “190: peptide found in TET2 (gene looked up) (LYSELTETL; listed as Homo sapiens) [compound 190]”, the “Target coverage, over-expression of source gene, AML” value [1, 4] is reported as “IV (>70% = IV)”, the “Target coverage, over-expression of source gene, BRCA” value [1, 4] is reported as “III (50-69% = III)” and the “Target coverage, over-expression of source gene, CLL” value [1, 4] is reported as “IV (>70% = IV)”. The “Target coverage, over-expression of source gene, CRC” value [1, 4] was “I (<19% over-expression = I)”, the “Target coverage, over-expression of source gene, GB” value [1, 4] was “II (20-49% = II)” and the “Target coverage, over-expression of source gene, HCC” value [1, 4] was “I (<19% over-expression = I)”. The “Target coverage, over-expression of source gene, OC” value [1, 4] was “I (<19% over-expression = I)”, the “Target coverage, over-expression of source gene, OSCAR” value [1, 4] was “I (<19% over-expression = I)” and the “Target coverage, over-expression of source gene, PC” value [1, 4] was “II (20-49% = II)”. The “Target coverage, over-expression of source gene, RCC” value [1, 4] was “I (<19% over-expression = I)”, the “Target coverage, over-expression of source gene, SCLC” value [1, 4] was “IV (>70% = IV)” and the “Target coverage, over-expression of source gene, pNSCLC” value [1, 4] was “IV (>70% = IV)”. For the same substance, the “Peptide Presentation on cancer entities” value [2] was “NSCLC”.
In the case of “414 (MYPYIYHVL; listed as Homo sapiens) [compound 414]”, the ENTITIES [2] is reported as “HCC, NSCLC, GC, GB, PCA”.
In the case of “416 (AYSDGHFLF; listed as Homo sapiens) [compound 416]”, the ENTITIES [2] is reported as “NSCLC, GC, RCC, GB, PCA, HCC”.
In the case of “417 (VYKVVGNLL; listed as Homo sapiens) [compound 417]”, the ENTITIES [2] is reported as “GB, RCC, HCC, NSCLC, GC”.
“EYFTPLLSGQF (listed as Homo sapiens) [SEQ ID NO: 165]” was tested, and the “number of cancer tissues on which the peptide was found presented” value (shortened to “number of cancer tissues”) [2] was 10.
For “EYLDRIGQLFF (listed as Homo sapiens) [SEQ ID NO: 131]”, the “number of cancer tissues” value [2] was 41 and the “number of normal tissues on which the peptide was found presented” value (“number of normal tissues” below) [2] was 2.
“EYNSDLHQFF (listed as Homo sapiens) [SEQ ID NO: 345]” was tested, and the “number of cancer tissues” value [2] was 13.
With “FYINGQYQF (listed as Homo sapiens) [SEQ ID NO: 176]” the “number of cancer tissues” value [2] was 67, the “number of cell lines on which the peptide was found presented” value [2] was 1 and the “number of normal tissues” value [2] was 3.
In the case of “IYKWITDNF (listed as Homo sapiens) [SEQ ID NO: 155]”, the “number of cancer tissues” value [2] is reported as 53 and the “number of normal tissues” value [2] is reported as 4.
For “IYSFHTLSF (listed as Homo sapiens) [SEQ ID NO: 113]”, the “number of cancer tissues” value [2] was 28.
With “IYVIPQPHF (listed as Homo sapiens) [SEQ ID NO: 346]” the “number of cancer tissues” value [2] was 21.
With “KYTSYILAF (listed as Homo sapiens) [SEQ ID NO: 162]” the “number of cancer tissues” value [2] was 95, the “number of cell lines on which the peptide was found presented” value [2] was 3 and the “number of normal tissues” value [2] was 4.
“LYSPVPFTL (listed as Homo sapiens) [SEQ ID NO: 175]” was tested, and the “number of cancer tissues” value [2] was 42.
“NYIPVKNGKQF (listed as Homo sapiens) [SEQ ID NO: 103]” was tested, and the “number of cancer tissues” value [2] was 11.
In the case of “RYGLPAAWSTF (listed as Homo sapiens) [SEQ ID NO: 121]”, the “number of cancer tissues” value [2] is reported as 20.
In the case of “RYLNKSFVL (listed as Homo sapiens) [SEQ ID NO: 115]”, the “number of cancer tissues” value [2] is reported as 25 and the “number of normal tissues” value [2] is reported as 1.
In the case of “SYGTVSQIF (listed as Homo sapiens) [SEQ ID NO: 148]”, the “number of cancer tissues” value [2] is reported as 100 and the “number of normal tissues” value [2] is reported as 5.
In the case of “VFSPDGHLF (listed as Homo sapiens) [SEQ ID NO: 360]”, the “number of cancer tissues” value [2] is reported as 33.
“VYALKVRTI (listed as Homo sapiens) [SEQ ID NO: 145]” was tested, and the “number of cancer tissues” value [2] was 25.
With “VYNEQIRDLL (listed as Homo sapiens) [SEQ ID NO: 354]” the “number of cancer tissues” value [2] was 13.
“VYVQILQKL (listed as Homo sapiens) [SEQ ID NO: 111]” was tested, and the “number of cancer tissues” value [2] was 32 and the “number of normal tissues” value [2] was 1.
